{
  "sequences": {"note": "Amino acid sequences for entries named in this document (tags omitted). A change or cut given only in a name is not applied to a line headed by its entry.", "UniProt Q96AB3": "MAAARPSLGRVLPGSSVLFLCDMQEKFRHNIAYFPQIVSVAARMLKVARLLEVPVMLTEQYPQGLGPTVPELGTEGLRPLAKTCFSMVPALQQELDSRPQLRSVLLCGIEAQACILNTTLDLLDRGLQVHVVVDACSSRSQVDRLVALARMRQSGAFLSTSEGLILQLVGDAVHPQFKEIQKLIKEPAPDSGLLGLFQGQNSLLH", "UniProt Q9UI26": "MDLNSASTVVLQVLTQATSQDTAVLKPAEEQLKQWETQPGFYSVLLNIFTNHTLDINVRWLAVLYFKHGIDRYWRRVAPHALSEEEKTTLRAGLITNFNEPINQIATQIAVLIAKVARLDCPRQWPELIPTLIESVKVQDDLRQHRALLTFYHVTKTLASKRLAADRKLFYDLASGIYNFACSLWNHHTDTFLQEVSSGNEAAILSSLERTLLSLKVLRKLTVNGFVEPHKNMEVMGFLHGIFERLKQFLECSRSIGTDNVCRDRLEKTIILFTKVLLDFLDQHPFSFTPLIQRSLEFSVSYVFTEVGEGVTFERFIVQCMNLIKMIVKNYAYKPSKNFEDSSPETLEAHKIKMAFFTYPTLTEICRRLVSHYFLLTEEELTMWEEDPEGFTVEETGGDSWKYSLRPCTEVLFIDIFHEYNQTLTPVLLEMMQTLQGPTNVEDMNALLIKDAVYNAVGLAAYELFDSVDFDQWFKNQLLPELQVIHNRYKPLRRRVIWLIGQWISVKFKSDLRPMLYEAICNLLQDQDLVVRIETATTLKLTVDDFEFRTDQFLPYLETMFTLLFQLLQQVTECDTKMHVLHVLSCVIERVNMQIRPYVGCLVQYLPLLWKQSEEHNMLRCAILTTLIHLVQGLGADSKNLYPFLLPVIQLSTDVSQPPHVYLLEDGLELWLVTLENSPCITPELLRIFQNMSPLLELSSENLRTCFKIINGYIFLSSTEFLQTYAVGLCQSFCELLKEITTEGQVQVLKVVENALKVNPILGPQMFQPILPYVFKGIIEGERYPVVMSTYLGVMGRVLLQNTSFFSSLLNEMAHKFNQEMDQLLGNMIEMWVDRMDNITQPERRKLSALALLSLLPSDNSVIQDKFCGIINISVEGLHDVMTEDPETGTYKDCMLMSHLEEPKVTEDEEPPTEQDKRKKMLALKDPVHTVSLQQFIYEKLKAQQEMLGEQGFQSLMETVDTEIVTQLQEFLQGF", "UniProt Q8N5M9": "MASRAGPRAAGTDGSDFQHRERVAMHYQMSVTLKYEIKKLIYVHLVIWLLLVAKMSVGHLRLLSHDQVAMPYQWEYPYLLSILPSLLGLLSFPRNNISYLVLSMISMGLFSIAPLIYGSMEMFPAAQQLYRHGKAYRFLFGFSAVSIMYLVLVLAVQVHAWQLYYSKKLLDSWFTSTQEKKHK", "UniProt P33947": "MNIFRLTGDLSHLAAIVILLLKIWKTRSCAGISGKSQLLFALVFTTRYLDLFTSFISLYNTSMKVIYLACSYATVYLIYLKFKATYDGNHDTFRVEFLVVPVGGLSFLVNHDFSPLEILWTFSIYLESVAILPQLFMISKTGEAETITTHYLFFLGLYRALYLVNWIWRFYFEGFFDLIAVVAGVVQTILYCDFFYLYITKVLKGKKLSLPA", "UniProt Q9NV88, whole entry, looked up": "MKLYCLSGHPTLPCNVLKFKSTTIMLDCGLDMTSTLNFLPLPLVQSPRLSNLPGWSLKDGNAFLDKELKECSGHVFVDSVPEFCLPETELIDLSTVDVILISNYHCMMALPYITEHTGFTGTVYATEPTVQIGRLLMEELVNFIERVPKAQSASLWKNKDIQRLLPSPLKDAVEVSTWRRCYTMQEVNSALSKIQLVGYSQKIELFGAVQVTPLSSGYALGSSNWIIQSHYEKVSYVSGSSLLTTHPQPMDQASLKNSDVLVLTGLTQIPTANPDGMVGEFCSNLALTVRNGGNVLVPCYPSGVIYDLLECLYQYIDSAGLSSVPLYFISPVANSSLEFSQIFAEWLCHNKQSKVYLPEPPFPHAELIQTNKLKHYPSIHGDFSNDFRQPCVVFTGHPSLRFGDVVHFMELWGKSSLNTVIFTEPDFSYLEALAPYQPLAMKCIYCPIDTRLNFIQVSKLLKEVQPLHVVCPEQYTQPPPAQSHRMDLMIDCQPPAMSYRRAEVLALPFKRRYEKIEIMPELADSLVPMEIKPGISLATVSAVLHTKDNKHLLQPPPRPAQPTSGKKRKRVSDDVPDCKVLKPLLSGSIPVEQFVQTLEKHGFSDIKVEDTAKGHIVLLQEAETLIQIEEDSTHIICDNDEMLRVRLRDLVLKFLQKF", "UniProt Q9H3F6": "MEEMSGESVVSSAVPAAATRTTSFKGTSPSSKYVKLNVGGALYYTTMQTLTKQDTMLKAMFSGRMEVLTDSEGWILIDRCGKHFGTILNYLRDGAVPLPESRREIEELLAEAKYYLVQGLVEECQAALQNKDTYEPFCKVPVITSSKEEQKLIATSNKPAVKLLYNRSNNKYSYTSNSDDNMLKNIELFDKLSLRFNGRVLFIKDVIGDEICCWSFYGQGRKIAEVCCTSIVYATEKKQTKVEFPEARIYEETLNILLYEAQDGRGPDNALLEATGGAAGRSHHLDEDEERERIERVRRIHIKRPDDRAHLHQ", "UniProt Q6DN90": "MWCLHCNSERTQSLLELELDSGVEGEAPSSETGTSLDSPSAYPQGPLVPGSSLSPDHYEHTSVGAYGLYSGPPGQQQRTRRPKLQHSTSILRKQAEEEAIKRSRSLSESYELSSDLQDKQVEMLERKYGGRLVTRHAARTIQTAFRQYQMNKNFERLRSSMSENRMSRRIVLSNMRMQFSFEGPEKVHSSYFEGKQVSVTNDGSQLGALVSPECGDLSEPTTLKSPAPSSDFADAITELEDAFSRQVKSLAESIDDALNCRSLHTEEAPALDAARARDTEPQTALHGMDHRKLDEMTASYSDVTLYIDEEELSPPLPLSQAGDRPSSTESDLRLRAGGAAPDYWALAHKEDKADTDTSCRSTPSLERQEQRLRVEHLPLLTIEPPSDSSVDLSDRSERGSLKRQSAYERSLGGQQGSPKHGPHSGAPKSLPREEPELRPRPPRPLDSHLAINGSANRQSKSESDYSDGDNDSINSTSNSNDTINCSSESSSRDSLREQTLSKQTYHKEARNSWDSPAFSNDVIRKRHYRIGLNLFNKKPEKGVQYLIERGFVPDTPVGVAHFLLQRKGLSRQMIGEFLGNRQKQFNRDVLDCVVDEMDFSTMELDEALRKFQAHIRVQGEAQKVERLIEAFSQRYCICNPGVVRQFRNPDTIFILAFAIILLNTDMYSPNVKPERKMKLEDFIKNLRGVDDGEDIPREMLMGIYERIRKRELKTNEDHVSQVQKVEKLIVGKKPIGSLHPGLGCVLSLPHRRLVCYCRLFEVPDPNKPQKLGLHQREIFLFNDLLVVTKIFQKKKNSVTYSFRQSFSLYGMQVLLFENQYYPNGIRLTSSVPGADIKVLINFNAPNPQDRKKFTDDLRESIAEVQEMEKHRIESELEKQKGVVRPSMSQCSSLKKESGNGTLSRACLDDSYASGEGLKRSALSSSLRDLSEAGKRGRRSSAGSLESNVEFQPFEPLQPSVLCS", "UniProt P51617, whole entry, looked up": "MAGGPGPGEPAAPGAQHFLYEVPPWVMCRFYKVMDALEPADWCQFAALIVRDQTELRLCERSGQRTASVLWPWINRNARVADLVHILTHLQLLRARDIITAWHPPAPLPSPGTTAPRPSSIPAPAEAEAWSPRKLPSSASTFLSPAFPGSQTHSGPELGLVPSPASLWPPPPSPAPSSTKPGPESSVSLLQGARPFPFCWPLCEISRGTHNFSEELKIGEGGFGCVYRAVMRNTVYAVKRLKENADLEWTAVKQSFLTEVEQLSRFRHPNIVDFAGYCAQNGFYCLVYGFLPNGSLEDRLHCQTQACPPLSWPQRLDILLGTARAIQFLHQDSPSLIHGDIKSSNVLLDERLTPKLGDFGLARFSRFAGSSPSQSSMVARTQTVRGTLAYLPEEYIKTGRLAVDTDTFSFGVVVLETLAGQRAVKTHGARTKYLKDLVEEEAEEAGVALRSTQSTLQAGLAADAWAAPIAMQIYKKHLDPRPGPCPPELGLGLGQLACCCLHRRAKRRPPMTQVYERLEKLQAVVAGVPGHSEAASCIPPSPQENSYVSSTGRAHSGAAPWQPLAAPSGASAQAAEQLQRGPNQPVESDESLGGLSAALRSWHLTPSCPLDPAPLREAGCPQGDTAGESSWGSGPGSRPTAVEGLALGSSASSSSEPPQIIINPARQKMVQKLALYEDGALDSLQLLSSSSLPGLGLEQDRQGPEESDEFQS", "UniProt Q9H1B7, whole entry, looked up": "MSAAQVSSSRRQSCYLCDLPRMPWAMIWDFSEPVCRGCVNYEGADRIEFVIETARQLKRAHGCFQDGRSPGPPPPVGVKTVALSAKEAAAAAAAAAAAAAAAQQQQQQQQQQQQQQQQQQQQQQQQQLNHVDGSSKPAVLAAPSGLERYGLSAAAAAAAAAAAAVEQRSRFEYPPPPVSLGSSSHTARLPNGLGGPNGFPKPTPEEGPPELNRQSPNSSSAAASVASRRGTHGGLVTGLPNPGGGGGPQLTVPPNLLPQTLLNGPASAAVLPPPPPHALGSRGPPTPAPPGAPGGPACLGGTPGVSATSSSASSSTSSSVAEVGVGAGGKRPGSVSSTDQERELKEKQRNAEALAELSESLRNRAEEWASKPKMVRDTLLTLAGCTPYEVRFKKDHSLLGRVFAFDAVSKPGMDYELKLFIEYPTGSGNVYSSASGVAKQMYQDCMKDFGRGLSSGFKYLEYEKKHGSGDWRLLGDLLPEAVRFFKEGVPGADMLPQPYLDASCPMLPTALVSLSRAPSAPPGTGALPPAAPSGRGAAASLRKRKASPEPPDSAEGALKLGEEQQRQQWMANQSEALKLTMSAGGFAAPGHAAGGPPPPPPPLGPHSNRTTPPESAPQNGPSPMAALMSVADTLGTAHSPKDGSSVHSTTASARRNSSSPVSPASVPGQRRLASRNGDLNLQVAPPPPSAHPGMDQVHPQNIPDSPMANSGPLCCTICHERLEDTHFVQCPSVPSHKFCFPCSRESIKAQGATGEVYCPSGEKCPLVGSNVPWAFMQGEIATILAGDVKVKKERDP", "UniProt Q9NXV2": "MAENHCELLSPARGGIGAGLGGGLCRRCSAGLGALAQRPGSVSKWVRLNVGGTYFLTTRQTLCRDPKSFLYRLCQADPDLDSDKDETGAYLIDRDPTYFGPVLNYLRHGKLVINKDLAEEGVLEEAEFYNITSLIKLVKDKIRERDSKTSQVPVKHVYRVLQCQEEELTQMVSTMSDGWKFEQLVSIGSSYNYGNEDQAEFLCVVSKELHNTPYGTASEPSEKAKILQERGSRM", "UniProt Q13572": "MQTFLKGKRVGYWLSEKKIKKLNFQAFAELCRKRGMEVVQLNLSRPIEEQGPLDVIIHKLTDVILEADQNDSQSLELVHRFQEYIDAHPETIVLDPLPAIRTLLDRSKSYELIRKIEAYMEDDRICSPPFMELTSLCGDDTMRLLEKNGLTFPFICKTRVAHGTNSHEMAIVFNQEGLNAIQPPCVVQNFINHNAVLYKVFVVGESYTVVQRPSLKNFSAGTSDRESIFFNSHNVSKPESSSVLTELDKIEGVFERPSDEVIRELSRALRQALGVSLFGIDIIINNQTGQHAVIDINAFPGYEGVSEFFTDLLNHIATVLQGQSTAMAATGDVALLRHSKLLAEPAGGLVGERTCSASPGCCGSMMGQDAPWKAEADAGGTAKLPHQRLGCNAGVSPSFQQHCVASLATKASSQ", "UniProt Q8TB96": "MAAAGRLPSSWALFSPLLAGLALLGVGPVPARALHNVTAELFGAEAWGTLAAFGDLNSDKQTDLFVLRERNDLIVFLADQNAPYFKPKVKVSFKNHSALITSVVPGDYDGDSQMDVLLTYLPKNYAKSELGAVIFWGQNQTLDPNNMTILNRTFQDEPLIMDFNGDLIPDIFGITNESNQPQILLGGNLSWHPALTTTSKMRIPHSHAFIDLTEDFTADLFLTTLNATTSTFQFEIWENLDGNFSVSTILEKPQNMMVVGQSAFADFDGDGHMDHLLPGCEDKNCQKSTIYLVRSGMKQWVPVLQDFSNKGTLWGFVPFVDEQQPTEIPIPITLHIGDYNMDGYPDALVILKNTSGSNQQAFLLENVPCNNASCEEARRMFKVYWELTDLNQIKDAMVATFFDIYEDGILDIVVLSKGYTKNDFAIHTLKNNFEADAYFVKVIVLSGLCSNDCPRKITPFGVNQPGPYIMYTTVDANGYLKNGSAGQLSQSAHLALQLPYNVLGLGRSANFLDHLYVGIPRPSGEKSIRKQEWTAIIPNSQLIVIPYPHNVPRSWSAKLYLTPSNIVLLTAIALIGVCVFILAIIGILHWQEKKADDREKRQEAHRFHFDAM", "UniProt Q8NC54": "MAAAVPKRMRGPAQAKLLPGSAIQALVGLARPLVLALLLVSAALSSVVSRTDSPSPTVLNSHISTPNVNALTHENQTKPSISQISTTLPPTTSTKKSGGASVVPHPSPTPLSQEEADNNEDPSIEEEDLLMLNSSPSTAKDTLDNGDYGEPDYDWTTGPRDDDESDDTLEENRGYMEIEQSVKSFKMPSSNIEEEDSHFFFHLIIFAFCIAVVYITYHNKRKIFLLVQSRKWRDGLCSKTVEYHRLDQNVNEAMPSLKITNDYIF"},
  "source": "the supplement of paper PMC10849652",
  "note": "The other results are listed elsewhere or left out.",
  "data": [
    {"compound": "CCn1cc(-c2ccnc3[nH]c(-c4cccc(CN(C)C)c4)cc23)c(-c2ccc(NC(=O)N(C)C)cc2)n1", "assay": "log2 fold change, soluble protein after heating vs DMSO (PISA); higher = thermal stabilisation; K562 lysate, 10 uM; active = over 0.2 and 3.5 SD of the protein, either way, in both replicates (recomputed)", "how_it_was_run": "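K562 pellets were dounce-homogenised in PBS pH 7.4 containing 1 mM MgCl2, and the crude extract, at 1 mg/mL protein, was exposed to 10 μM compound for 30 min. Aliquots were heated for 3 min across 48°C-58°C, pooled, brought to 0.5% NP-40 at 4°C and spun at 21,000xg for 90 min, with the supernatant taken as soluble protein. TMTpro 16plex LC-MS/MS with equalised channel sums quantified that protein. Values are log-two fold changes in thermal stability relative to solvent controls, taken from duplicates.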", "values": [
      {"target": "ISOC2 (UniProt Q96AB3)", "log2 fold change": "inactive: 0.02"},
      {"target": "INTS5 (UniProt Q6P9B9)", "log2 fold change": "inactive: 0.029"},
      {"target": "ITPKA (UniProt P23677)", "log2 fold change": "inactive: 0"},
      {"target": "IPO11 isoform 2 (UniProt Q9UI26)", "log2 fold change": "inactive: 0.001"},
      {"target": "JAGN1 (UniProt Q8N5M9)", "log2 fold change": "inactive: 0.015"},
      {"target": "KDM1B (UniProt Q8NB78)", "log2 fold change": "inactive: 0.073"},
      {"target": "KDELR2 (UniProt P33947)", "log2 fold change": "inactive: 0.278"},
      {"target": "INTS9 (UniProt Q9NV88)", "log2 fold change": "inactive: -0.142"},
      {"target": "KCTD10 (UniProt Q9H3F6)", "log2 fold change": "inactive: 0.193"},
      {"target": "ISYNA1 (UniProt Q9NPH2)", "log2 fold change": "inactive: -0.063"},
      {"target": "ISCU (UniProt Q9H1K1)", "log2 fold change": "inactive: 0.054"},
      {"target": "IQGAP1 (UniProt P46940)", "log2 fold change": "inactive: -0.014"},
      {"target": "INTS14 (UniProt Q96SY0)", "log2 fold change": "inactive: -0.071"},
      {"target": "KDM1A (UniProt O60341)", "log2 fold change": "inactive: -0.065"},
      {"target": "KBTBD2 (UniProt Q8IY47)", "log2 fold change": "inactive: -0.166"},
      {"target": "IQSEC1 (UniProt Q6DN90)", "log2 fold change": "inactive: 0.017"},
      {"target": "IRAK1 (UniProt P51617)", "log2 fold change": "inactive: -0.135"},
      {"target": "ITGAV (UniProt P06756)", "log2 fold change": "inactive: -0.01"},
      {"target": "KCTD9 (UniProt Q7L273)", "log2 fold change": "inactive: -0.019"},
      {"target": "IRF2BPL (UniProt Q9H1B7)", "log2 fold change": "inactive: -0.195"},
      {"target": "IRF2BP1 (UniProt Q8IU81)", "log2 fold change": "inactive: 0.037"},
      {"target": "ISOC1 (UniProt Q96CN7)", "log2 fold change": "inactive: -0.057"},
      {"target": "KAT7 (UniProt O95251)", "log2 fold change": "inactive: -0.285"},
      {"target": "JPT1 (UniProt Q9UK76)", "log2 fold change": "inactive: -0.019"},
      {"target": "KCTD5 (UniProt Q9NXV2)", "log2 fold change": "inactive: -0.049"},
      {"target": "INTS7 (UniProt Q9NVH2)", "log2 fold change": "inactive: 0.027"},
      {"target": "IRF3 (UniProt Q14653)", "log2 fold change": "inactive: -0.007"},
      {"target": "ITPK1 (UniProt Q13572)", "log2 fold change": "inactive: -0.084"},
      {"target": "KAT8 (UniProt Q9H7Z6)", "log2 fold change": "inactive: -0.017"},
      {"target": "IPO5 isoform 3 (UniProt O00410)", "log2 fold change": "inactive: 0.02"},
      {"target": "ISCA1 isoform 2 (UniProt Q9BUE6)", "log2 fold change": "active: 0.425"},
      {"target": "JPT2 isoform 3 (UniProt Q9H910)", "log2 fold change": "inactive: 0.015"},
      {"target": "KCTD20 (UniProt Q7Z5Y7)", "log2 fold change": "inactive: 0.018"},
      {"target": "ITFG1 (UniProt Q8TB96)", "log2 fold change": "inactive: -0.075"},
      {"target": "KANSL3 (UniProt Q9P2N6)", "log2 fold change": "inactive: -0.016"},
      {"target": "KCT2 (UniProt Q8NC54)", "log2 fold change": "active: -0.374"},
      {"target": "JUND (UniProt P17535)", "log2 fold change": "inactive: -0.296"},
      {"target": "ISY1 isoform 1 (UniProt Q9ULR0)", "log2 fold change": "inactive: -0.101"},
      {"target": "ITGB1 (UniProt P05556)", "log2 fold change": "inactive: -0.004"}
    ]}
  ]
}
